{
  "source": "PubChem BioAssay AID248",
  "about": "(DTP/NCI, 2004)",
  "test_system": "L1210 leukemia ip in BDF1 mice, survival T/C",
  "assay": "NCI In Vivo Anticancer Drug Screen. Data for tumor model L1210 Leukemia (intraperitoneal) in B6D2F1 (BDF1) mice",
  "conditions": "T/C endpoint: mean survival time, higher T/C = longer survival",
  "key": {"[1]": {"conditions": "dose: 100.0 mg/kg/injection, schedule: Q04DX003 (ip), vehicle: saline"}, "[2]": {"conditions": "dose: 200.0 mg/kg/injection, schedule: Q04DX003 (ip), vehicle: saline"}, "[3]": {"conditions": "dose: 400.0 mg/kg/injection, schedule: Q04DX003 (ip), vehicle: saline"}, "[4]": {"conditions": "dose: 100.0 mg/kg/injection, schedule: Q04DX003 (ip), vehicle: Klucel (hydroxypropylcellulose) (HPC)"}, "[5]": {"conditions": "dose: 200.0 mg/kg/injection, schedule: Q04DX003 (ip), vehicle: Klucel (hydroxypropylcellulose) (HPC)"}, "[6]": {"conditions": "dose: 400.0 mg/kg/injection, schedule: Q04DX003 (ip), vehicle: Klucel (hydroxypropylcellulose) (HPC)"}, "[7]": {"conditions": "dose: 100.0 mg/kg/injection, schedule: Q01DX009 (ip), vehicle: Klucel (hydroxypropylcellulose) (HPC)"}, "[8]": {"conditions": "dose: 200.0 mg/kg/injection, schedule: Q01DX009 (ip), vehicle: Klucel (hydroxypropylcellulose) (HPC)"}, "[9]": {"conditions": "dose: 400.0 mg/kg/injection, schedule: Q01DX009 (ip), vehicle: Klucel (hydroxypropylcellulose) (HPC)"}, "[10]": {"conditions": "dose: 400.0 mg/kg/injection, schedule: Q01DX009 (ip), vehicle: carboxymethylcellulose (CMC)"}},
  "note": "The list does not hold the whole screen: its compounds were picked by chemical class. Other doses and runs of a compound may be missing. T/C is the treated group as % of the vehicle group. Some entries give survivors of the animals treated and no T/C: the source files T/C as zero there, which appears to mark a toxic dose or a test without result, not a measured value. Some survivor counts are full or nearly so, which does not show that the dose was tolerated: survival well below the control is almost never listed, so the zero probably covers shortened survival too. Survivors were counted at the toxicity check, usually on the fifth day, unless a day is given; later deaths do not show. Schedule codes are those of the source, read here as Q, the interval in days (D) or hours (H), X, the number of doses. For survival time, the PubChem record calls one and a half times the control and up active, and a quarter to a half above the control has no call in these data; cut-offs in other NCI protocols can differ. Some T/C values carry the count of animals alive at the toxicity check (mostly the fifth day); where neither a count nor a note follows, no animal had died by that day. Some doses were run more than once; their values stand side by side, smallest first. Some schedule codes hold Z or #, which are not explained here. Some T/C values are marked as having no survivor count here; that says nothing about deaths at the dose.",
  "data": [
    {"smiles": "CCOP(O)OCC.[Hg]", "values": [
      {"measurement": "T/C", "setting": "[1]", "value": "93 % of control"},
      {"measurement": "T/C", "setting": "[2]", "value": "96 % of control"},
      {"measurement": "T/C", "setting": "[3]", "value": "90 % of control [5 of 6 alive]"}
    ]},
    {"smiles": "NC(=O)N/C(N)=N/P(=O)(Oc1ccccc1)Oc1ccccc1", "values": [
      {"measurement": "T/C", "setting": "[4]", "value": "94 % of control"},
      {"measurement": "T/C", "setting": "[5]", "value": "102 % of control"},
      {"measurement": "T/C", "setting": "[6]", "value": "96 % of control"}
    ]},
    {"smiles": "CP1(=S)SP(C)(=S)S1", "note": "(stereo not drawn)", "values": [
      {"measurement": "T/C", "setting": "[1]", "value": "102 % of control [survivor count not shown]"},
      {"measurement": "T/C", "setting": "[2]", "value": "100 % of control [survivor count not shown]"}
    ]},
    {"smiles": "CCOC(=O)C(CCSC)NC(=O)N(CCCl)CCCl", "note": "(stereo not drawn)", "values": [
      {"measurement": "T/C", "setting": "dose: 62.5 mg/kg/injection, schedule: Q01DX Z (ip), vehicle: water", "value": "105 % of control"},
      {"measurement": "T/C", "setting": "dose: 125.0 mg/kg/injection, schedule: Q01DX Z (ip), vehicle: water", "value": "111 % of control [5 of 6 alive]"},
      {"measurement": "T/C", "setting": "dose: 250.0 mg/kg/injection, schedule: Q01DX Z (ip), vehicle: water", "value": "113 % of control"}
    ]},
    {"smiles": "O=[N+]([O-])c1cccc(SC2CCCCC2Cl)c1", "note": "(stereo not drawn)", "values": [
      {"measurement": "T/C", "setting": "[7]", "value": "100 % of control"},
      {"measurement": "T/C", "setting": "dose: 100.0 mg/kg/injection, schedule: Q04DX002 (ip), vehicle: Klucel (hydroxypropylcellulose) (HPC)", "value": "97 % of control"},
      {"measurement": "T/C", "setting": "[8]", "value": "100 % of control"},
      {"measurement": "T/C", "setting": "dose: 200.0 mg/kg/injection, schedule: Q04DX002 (ip), vehicle: Klucel (hydroxypropylcellulose) (HPC)", "value": "100 % of control"},
      {"measurement": "T/C", "setting": "[9]", "value": "100 % of control"},
      {"measurement": "T/C", "setting": "dose: 400.0 mg/kg/injection, schedule: Q04DX002 (ip), vehicle: Klucel (hydroxypropylcellulose) (HPC)", "value": "107 % of control"}
    ]},
    {"smiles": "O=C(NO)N/N=C/c1ccc(N(CCCl)CCCl)cc1", "values": [
      {"measurement": "T/C", "setting": "dose: 118.0 mg/kg/injection, schedule: Q01DX009 (ip), vehicle: carboxymethylcellulose (CMC)", "value": "115 and 134 % of control"},
      {"measurement": "T/C", "setting": "dose: 177.0 mg/kg/injection, schedule: Q01DX001 (ip), vehicle: carboxymethylcellulose (CMC)", "value": "123 % of control"},
      {"measurement": "T/C", "setting": "dose: 177.0 mg/kg/injection, schedule: Q01DX009 (ip), vehicle: carboxymethylcellulose (CMC)", "value": "128 and 151 % of control"},
      {"measurement": "T/C", "setting": "dose: 266.0 mg/kg/injection, schedule: Q01DX001 (ip), vehicle: carboxymethylcellulose (CMC)", "value": "130 and 137 % of control"},
      {"measurement": "T/C", "setting": "dose: 266.0 mg/kg/injection, schedule: Q01DX007 (ip), vehicle: carboxymethylcellulose (CMC)", "value": "168 % of control"},
      {"measurement": "T/C", "setting": "dose: 266.0 mg/kg/injection, schedule: Q01DX009 (ip), vehicle: carboxymethylcellulose (CMC)", "value": "119 and 120 % of control [5 of 6 alive]"},
      {"measurement": "T/C", "setting": "dose: 400.0 mg/kg/injection, schedule: Q01DX001 (ip), vehicle: carboxymethylcellulose (CMC)", "value": "110 and 140 % of control"},
      {"measurement": "T/C", "setting": "dose: 400.0 mg/kg/injection, schedule: Q01DX007 (ip), vehicle: carboxymethylcellulose (CMC)", "value": "121 % of control"},
      {"measurement": "T/C", "setting": "[10]", "value": "143 % of control"},
      {"measurement": "survivor count", "setting": "[10]", "value": "6 of 6"},
      {"measurement": "T/C", "setting": "dose: 600.0 mg/kg/injection, schedule: Q01DX001 (ip), vehicle: carboxymethylcellulose (CMC)", "value": "121 and 148 % of control"},
      {"measurement": "survivor count", "setting": "dose: 600.0 mg/kg/injection, schedule: Q01DX007 (ip), vehicle: carboxymethylcellulose (CMC)", "value": "4 of 6"}
    ]},
    {"smiles": "C1CN1.C=CC(=O)OCCOc1ccccc1", "values": [
      {"measurement": "T/C", "setting": "dose: 20.0 mg/kg/injection, schedule: Q01DX009 (ip), vehicle: Klucel (hydroxypropylcellulose) (HPC)", "value": "103 % of control"},
      {"measurement": "T/C", "setting": "dose: 40.0 mg/kg/injection, schedule: Q01DX009 (ip), vehicle: Klucel (hydroxypropylcellulose) (HPC)", "value": "105 % of control"},
      {"measurement": "T/C", "setting": "dose: 80.0 mg/kg/injection, schedule: Q01DX009 (ip), vehicle: Klucel (hydroxypropylcellulose) (HPC)", "value": "97 % of control"},
      {"measurement": "T/C", "setting": "[7]", "value": "103 % of control [4 of 6 alive]"},
      {"measurement": "T/C", "setting": "[4]", "value": "102 % of control [5 of 6 alive]"},
      {"measurement": "survivor count", "setting": "[8]", "value": "2 of 6"},
      {"measurement": "T/C", "setting": "[5]", "value": "109 % of control"},
      {"measurement": "survivor count", "setting": "[9]", "value": "0 of 6"},
      {"measurement": "T/C", "setting": "[6]", "value": "89 % of control [4 of 6 alive]"}
    ]},
    {"smiles": "O=c1cc(CN2CCN(CCCl)CC2)[nH]c(=O)[nH]1", "values": [
      {"measurement": "T/C", "setting": "[1]", "value": "90 % of control [3 of 4 alive]"},
      {"measurement": "T/C", "setting": "[2]", "value": "101 % of control"},
      {"measurement": "survivor count", "setting": "[3]", "value": "4 of 4"}
    ]},
    {"smiles": "CCN(CC)CCOC(=O)C(O)(c1cccc(C)c1)C1CCCCC1", "note": "(stereo not drawn)", "values": [
      {"measurement": "T/C", "setting": "dose: 75.0 mg/kg/injection, schedule: Q01DX001 (ip), vehicle: other", "value": "102 % of control"},
      {"measurement": "T/C", "setting": "dose: 150.0 mg/kg/injection, schedule: Q01DX001 (ip), vehicle: other", "value": "96 % of control"}
    ]}
  ]
}
